# Measurements taken from PubChem BioAssay AID445 (National Center for Advancing Translational Sciences (NCATS), 2006).
# The list shows a part of the results. These are further read-outs of the screen, such as a control signal, another cell line or another target. No call is given for them. Compounds called inactive in the main read-out are mostly missing here. Words in brackets tell the shape of the fitted curve; partial curves, single points and poor fits give uncertain potencies.
# Assay: IkB Signaling
# Conditions: ABC-DLBCL IkBa-CBG/CBR dual luciferase ratio (green luciferase fused to IkBa over red control in OCI-Ly3 lymphoma cells), 4 h; measured here: control luc red channel unless noted
# Summary of the method: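 Luminescence ratio of IκBα-fused green versus native red beetle luciferase in OCI-Ly3 cells, 4 h post-doxycycline with compound; red signal alone, scaled from basal (0%) to zero light (-100%), flagged nonspecific or cytotoxic effects.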
row,SMILES,AC50
1,COc1ccc(CC(=O)Nc2nc3c(s2)CC(C(C)(C)C)CC3)cc1 (configuration not stated),"39.8 µM [rising, partial curve]"
2,C(=N/Nc1nnc2c(n1)[nH]c1ccccc12)/c1cccnc1,"0.794 µM [falling, partial curve]"
3,O=C(CC1Sc2ncnn2C1=O)Nc1ccc(Br)cc1 (configuration not stated),"25.1 µM [falling, partial curve]"
4,Cc1ccc(-c2nc3c(c(SCC(=O)N4CCCCC4)n2)Cc2cc(C)ccc2O3)cc1,"20 µM [falling, single point]"
5,CCc1ccc(-c2nc(CSCC(=O)NCc3ccccc3OC)c(C)o2)cc1,"25.1 µM [falling, partial curve]"
6,CCOc1ccc(N2CC(c3nc(-c4cc(OC)c(OC)c(OC)c4)no3)CC2=O)cc1 (configuration not stated),"31.6 µM [falling, partial curve]"
7,Cc1ccc(-n2nnc3c(sc4nc(C)c(C)cc43)c2=O)cc1Cl,"39.8 µM [falling, single point]"
8,Cc1ccc(C)c(NC(=O)C2CCCN(S(=O)(=O)c3c(C)noc3/C=C/N(C)C)C2)c1 (configuration not stated),"25.1 µM [falling, single point]"
9,O=C(NC1CCCC1)c1c[nH]c2ccc(S(=O)(=O)Nc3cccc(C(F)(F)F)c3)cc2c1=O,"15.8 µM [falling, partial curve]"
10,CC(=O)OCC#CCSc1nnc(-c2cccc(Br)c2)o1,"3.98 µM [rising, single point]"
11,CCN(c1ccccc1)S(=O)(=O)c1nnc(NC(=O)COc2ccc(OC)cc2)s1,"2 µM [rising, partial curve]"
12,COCCNC(=O)C1CCN(S(=O)(=O)c2ccc3c(c2)CCCN3C(C)=O)CC1,"0.0794 µM [falling, full curve, poor fit]"
13,COc1ccc(-c2nc3n(n2)C(c2ccc(OC)cc2)C(C(=O)Nc2cccnc2)=C(C)N3)cc1 (configuration not stated),"12.6 µM [falling, partial curve]"
14,O=C(C1CCC(CNS(=O)(=O)c2ccc(Br)s2)CC1)N1CCN(c2ccccc2)CC1 (configuration not stated),"3.98 µM [falling, partial curve, poor fit]"
15,O=C(NCc1cccs1)C1CCN(S(=O)(=O)c2ccc(Br)s2)CC1,"31.6 µM [falling, partial curve]"
16,CCOC(=O)CNc1c(-c2ccc(O)cc2)nc2ccc(Cl)cn12,"31.6 µM [falling, partial curve]"
17,COc1ccc(-n2ncc3c(N4CCN(c5cccc(C)c5)C(C)C4)ncnc32)cc1 (configuration not stated),"1.26 µM [falling, full curve]"

# 3 structures from above, sorted by formula weight, descending:
row,SMILES,AC50
4,Cc1ccc(-c2nc3c(c(SCC(=O)N4CCCCC4)n2)Cc2cc(C)ccc2O3)cc1,"20 µM [falling, single point]"
7,Cc1ccc(-n2nnc3c(sc4nc(C)c(C)cc43)c2=O)cc1Cl,"39.8 µM [falling, single point]"
3,O=C(CC1Sc2ncnn2C1=O)Nc1ccc(Br)cc1 (configuration not stated),"25.1 µM [falling, partial curve]"
